Measurements reported in PubChem BioAssay AID493246 (Drosophila RNAi Screening Center, 2011).
The deposit covers about 21,000 reagents; below is a random part of those that have a named target and a result. Over the whole deposit, 429 (2%) are marked active. 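Values are raw and not normalised between plates; calls rest on per-plate z-scores that were not deposited.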 Reagents against one gene are numbered here. Not stated in the record: the amount of reagent, the time to read-out.

Assay: 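Identify essential fly genes by loss of cell viability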 (primary screen)
System: Drosophila Kc and S2R+ cells
Reagent: long dsRNA against Drosophila genes
Read-out: 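Raw, unnormalised count of remaining cells in each well; per-plate z-scores of cell number underlie the calls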
Scale: Kc cell number and S2R+ cell number: higher = more cells remaining
Rule for the call: 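Counted as a hit if cell number falls by a z-score of at least 3 within its plate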

gene | reagent | Kc cell number, rep 1 | Kc cell number, rep 2 | S2R+ cell number, rep 1 | S2R+ cell number, rep 2 | activity call
CG4598 | 1 | 1.61e6 | 1.66e6 | 1.24e6 | 1.46e6 | inactive
mxc | 1 | 1.60e6 | 1.51e6 | 1.00e6 | 1.15e6 | inactive
mRpL49 | 1 | 1.44e6 | 1.42e6 | 9.32e5 | 1.00e6 | inactive
CG30116 | 1 | 1.46e6 | 1.45e6 | 1.29e6 | 1.33e6 | inactive
CG30116 | 2 | 1.63e6 | 1.60e6 | 1.29e6 | 1.40e6 | inactive
Spn43Aa | 1 | 1.53e6 | 1.55e6 | 1.12e6 | 1.18e6 | inactive
Cyfip | 1 | 1.45e6 | 1.48e6 | 1.30e6 | 1.41e6 | inactive
CG17344 | 1 | 1.78e6 | 1.85e6 | 1.15e6 | 2.27e5 | inactive
CG33177 | 1 | 1.66e6 | 1.65e6 | 1.21e6 | 1.26e6 | inactive
Mmp2 | 1 | 1.66e6 | 1.75e6 | 1.36e6 | 1.56e6 | inactive
CG10949 | 1 | 1.34e6 | 1.38e6 | 1.22e6 | 1.27e6 | inactive
CG11594 | 1 | 1.34e6 | 1.35e6 | 1.19e6 | 1.13e6 | inactive
Tsp5D | 1 | 1.62e6 | 1.56e6 | 1.11e6 | 1.23e6 | inactive
Osi14 | 1 | 1.58e6 | 1.80e6 | 1.25e6 | 1.46e6 | inactive
CG30412 | 1 | 1.35e6 | 1.77e6 | 1.05e6 | 1.16e6 | inactive
Acf | 1 | 5.10e5 | – | 6.97e5 | – | inactive
CG6230 | 1 | 1.29e6 | 1.35e6 | 1.13e6 | 1.21e6 | inactive
VhaM9.7-b | 1 | 1.39e6 | 1.46e6 | 1.27e6 | 1.31e6 | inactive
Urod | 1 | 1.78e6 | 1.84e6 | 1.39e6 | 1.64e6 | inactive

Quoted from above, 7 entries:
gene | reagent | Kc cell number, rep 1 | Kc cell number, rep 2 | S2R+ cell number, rep 1 | S2R+ cell number, rep 2 | activity call
mxc | 1 | 1.60e6 | 1.51e6 | 1.00e6 | 1.15e6 | inactive
mRpL49 | 1 | 1.44e6 | 1.42e6 | 9.32e5 | 1.00e6 | inactive
CG30116 | 1 | 1.46e6 | 1.45e6 | 1.29e6 | 1.33e6 | inactive
CG30116 | 2 | 1.63e6 | 1.60e6 | 1.29e6 | 1.40e6 | inactive
Spn43Aa | 1 | 1.53e6 | 1.55e6 | 1.12e6 | 1.18e6 | inactive
Cyfip | 1 | 1.45e6 | 1.48e6 | 1.30e6 | 1.41e6 | inactive
CG17344 | 1 | 1.78e6 | 1.85e6 | 1.15e6 | 2.27e5 | inactive

Additional entries:
gene | reagent | Kc cell number, rep 1 | Kc cell number, rep 2 | S2R+ cell number, rep 1 | S2R+ cell number, rep 2 | activity call
SH3PX1 | 1 | 1.32e6 | 1.38e6 | 1.27e6 | 1.32e6 | inactive
CG9512 | 1 | 5.71e5 | – | 8.34e5 | – | inactive
CG31705 | 1 | 1.00e6 | 1.13e6 | 7.71e5 | 8.88e5 | inactive
dsx | 1 | 1.38e6 | 1.42e6 | 1.07e6 | 1.22e6 | inactive
dsx | 2 | 1.45e6 | 1.55e6 | 1.03e6 | 1.13e6 | inactive
Pp1-13C | 1 | 1.53e6 | 1.41e6 | 9.03e5 | 9.64e5 | inactive
CG1075 (retired record) | 1 | 1.58e6 | 1.90e6 | 1.23e6 | 1.32e6 | inactive
CG13559 | 1 | 1.49e6 | 1.58e6 | 1.23e6 | 1.30e6 | inactive
CG18130 | 1 | 1.51e6 | 1.45e6 | 9.97e5 | 1.12e6 | inactive
CG17186 | 1 | 1.46e6 | 1.40e6 | 1.18e6 | 1.19e6 | inactive
CG15128 | 1 | 1.48e6 | 1.52e6 | 1.14e6 | 1.25e6 | inactive
CG32110 | 1 | 1.36e6 | 1.45e6 | 1.11e6 | 1.28e6 | inactive
ndl | 1 | 1.49e6 | 1.42e6 | 1.19e6 | 1.17e6 | inactive
CG7236 | 1 | 1.62e6 | 1.72e6 | 1.04e6 | 1.18e6 | inactive
RpL9 | 1 | 1.12e6 | 1.27e6 | 6.53e5 | 7.69e5 | active
DCTN1-p150 | 1 | 1.57e6 | 1.68e6 | 1.22e6 | 1.31e6 | inactive
CG31115 | 1 | 1.27e6 | 1.51e6 | 1.15e6 | 1.15e6 | inactive
CG15712 | 1 | 1.58e6 | 1.57e6 | 1.18e6 | 1.31e6 | inactive
Pgm2a | 1 | 1.45e6 | 1.42e6 | 1.26e6 | 1.31e6 | inactive
Rrp45 | 1 | 1.40e6 | 1.45e6 | 1.00e6 | 1.09e6 | inactive
Delta | 1 | 1.39e6 | 1.43e6 | 1.00e6 | 1.09e6 | inactive
